PubChem BioAssay AID504774 | Drosophila RNAi Screening Center, 2011
Test: 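Fly genes whose loss alters survival after alkylation damage to DNA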 (primary screen). Cells: Drosophila Kc167 cells. Reagents: long dsRNA against Drosophila genes, about 0.25 µg dsRNA per well. Time to read-out: about 6 days: 3 days knock-down, then 3 days with or without MMS. Challenge: methyl methanesulphonate 0.004% (w/v) for 3 days after knock-down. Measured: 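Viability in wells given MMS, read as ATP luminescence, normalised by quantiles plate by plate and averaged across replicates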. Scale: mean viability with MMS and viability with MMS: higher = more surviving cells after MMS.
The screen tested about 23,000 reagents; shown is an unselected part of those with a known target gene and a result. 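Values are quantile-normalised luminescence on an arbitrary scale; higher means more cells surviving MMS.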 Further read-outs or replicates are left out here.

CG14864 [DRSC14987] → mean viability with MMS = 3.34e6; viability with MMS, replicate 1 = 3.78e6
CG13622 [DRSC14624] → mean viability with MMS = 3.48e6; viability with MMS, replicate 1 = 3.90e6
CG14408 [DRSC19595] → mean viability with MMS = 3.66e6; viability with MMS, replicate 1 = 4.04e6
ry [DRSC17048] → mean viability with MMS = 3.61e6; viability with MMS, replicate 1 = 4.06e6
CG7298 [DRSC10802] → mean viability with MMS = 3.56e6; viability with MMS, replicate 1 = 4.03e6
dia [DRSC03519] → mean viability with MMS = 3.55e6; viability with MMS, replicate 1 = 4.09e6
CG31639 [DRSC00910] → mean viability with MMS = 3.48e6; viability with MMS, replicate 1 = 4.10e6
epsilonTry [DRSC07611] → mean viability with MMS = 3.82e6; viability with MMS, replicate 1 = 4.67e6
CG42272 [DRSC08766] → mean viability with MMS = 3.48e6; viability with MMS, replicate 1 = 3.76e6
CG42272 [DRSC22502] → mean viability with MMS = 2.94e6; viability with MMS, replicate 1 = 3.71e6
CycB3 [DRSC16618] → mean viability with MMS = 3.58e6; viability with MMS, replicate 1 = 4.09e6
CG32075 [DRSC10622] → mean viability with MMS = 3.56e6; viability with MMS, replicate 1 = 4.04e6
Neurochondrin [DRSC12580] → mean viability with MMS = 3.60e6; viability with MMS, replicate 1 = 4.07e6
spi [DRSC03618] → mean viability with MMS = 3.50e6; viability with MMS, replicate 1 = 3.97e6
CG32483 [DRSC07902] → mean viability with MMS = 3.55e6; viability with MMS, replicate 1 = 4.08e6
Rfx [DRSC16820] → mean viability with MMS = 3.55e6; viability with MMS, replicate 1 = 4.03e6
ClC-a [DRSC14947] → mean viability with MMS = 3.40e6; viability with MMS, replicate 1 = 3.91e6
ClC-a [DRSC14948] → mean viability with MMS = 3.56e6; viability with MMS, replicate 1 = 4.06e6
ClC-a [DRSC16142] → mean viability with MMS = 3.68e6; viability with MMS, replicate 1 = 4.21e6
PIG-H [DRSC14856] → mean viability with MMS = 3.50e6; viability with MMS, replicate 1 = 3.91e6
CG14015 [DRSC02346] → mean viability with MMS = 3.39e6; viability with MMS, replicate 1 = 4.03e6
CG3368 [DRSC15485] → mean viability with MMS = 3.65e6; viability with MMS, replicate 1 = 4.19e6
Bili [DRSC14405] → mean viability with MMS = 3.23e6; viability with MMS, replicate 1 = 3.69e6
Adss [DRSC14162] → mean viability with MMS = 3.32e6; viability with MMS, replicate 1 = 3.76e6
